No constants are given. Whether binding was seen depends on the method and setting. Binding seen in cells or lysates may run through a third protein. A yes stands for co-enrichment or nearness to the bait. Other partners may have been found.
B1: MARS (enzyme, UniProt P56192 1-900)
chain: MRLFVSDGVPGCLPVLAAAGRARGRAEVLISTVGPEDCVVPFLTRPKVPVLQLDSGNYLFSTSAICRYFFLLSGWEQDDLTNQWLEWEATELQPALSAALYYLVVQGKKGEDVLGSVRRALTHIDHSLSRQNCPFLAGETESLADIVLWGALYPLLQDPAYLPEELSALHSWFQTLSTQEPCQRAAETVLKQQGVLALRPYLQKQPQPSPAEGRAVTNEPEEEELATLSEEEIAMAVTAWEKGLESLPPLRPQQNPVLPVAGERNVLITSALPYVNNVPHLGNIIGCVLSADVFARYSRLRQWNTLYLCGTDEYGTATETKALEEGLTPQEICDKYHIIHADIYRWFNISFDIFGRTTTPQQTKITQDIFQQLLKRGFVLQDTVEQLRCEHCARFLADRFVEGVCPFCGYEEARGDQCDKCGKLINAVELKKPQCKVCRSCPVVQSSQHLFLDLPKLEKRLEEWLGRTLPGSDWTPNAQFITRSWLRDGLKPRCITRDLKWGTPVPLEGFEDKVFYVWFDATIGYLSITANYTDQWERWWKNPEQVDLYQFMAKDNVPFHSLVFPCSALGAEDNYTLVSHLIATEYLNYEDGKFSKSRGVGVFGDMAQDTGIPADIWRFYLLYIRPEGQDSAFSWTDLLLKNNSELLNNLGNFINRAGMFVSKFFGGYVPEMVLTPDDQRLLAHVTLELQHYHQLLEKVRIRDALRSILTISRHGNQYIQVNEPWKRIKGSEADRQRAGTVTGLAVNIAALLSVMLQPYMPTVSATIQAQLQLPPPACSILLTNFLCTLPAGHQIGTVSPLFQKLENDQIESLRQRFGGGQAKTSPKPAVVETVTTAKPQQIQALMDEVTKQGNIVRELKAQKADKNEVAAEVAKLLDLKKQLAVAEGKPPEAPKGKKKK
B2: QARS (enzyme, UniProt P47897 1-775)
chain: MAALDSLSLFTSLGLSEQKARETLKNSALSAQLREAATQAQQTLGSTIDKATGILLYGLASRLRDTRRLSFLVSYIASKKIHTEPQLSAALEYVRSHPLDPIDTVDFERECGVGVIVTPEQIEEAVEAAINRHRPQLLVERYHFNMGLLMGEARAVLKWADGKMIKNEVDMQVLHLLGPKLEADLEKKFKVAKARLEETDRRTAKDVVENGETADQTLSLMEQLRGEALKFHKPGENYKTPGYVVTPHTMNLLKQHLEITGGQVRTRFPPEPNGILHIGHAKAINFNFGYAKANNGICFLRFDDTNPEKEEAKFFTAICDMVAWLGYTPYKVTYASDYFDQLYAWAVELIRRGLAYVCHQRGEELKGHNTLPSPWRDRPMEESLLLFEAMRKGKFSEGEATLRMKLVMEDGKMDPVAYRVKYTPHHRTGDKWCIYPTYDYTHCLCDSIEHITHSLCTKEFQARRSSYFWLCNALDVYCPVQWEYGRLNLHYAVVSKRKILQLVATGAVRDWDDPRLFTLTALRRRGFPPEAINNFCARVGVTVAQTTMEPHLLEACVRDVLNDTAPRAMAVLESLRVIITNFPAAKSLDIQVPNFPADETKGFHQVPFAPIVFIERTDFKEEPEPGFKRLAWGQPVGLRHTGYVIELQHVVKGPSGCVESLEVTCRRADAGEKPKAFIHWVSQPLMCEVRLYERLFQHKNPEDPTEVPGGFLSDLNLASLHVVDAALVDCSVALAKPFDKFQFERLGYFSVDPDSHQGKLVFNRTVTLKEDPGKV

The chains behind the UniProt entries cited, without tags or fusion partners.
UniProt Q15046: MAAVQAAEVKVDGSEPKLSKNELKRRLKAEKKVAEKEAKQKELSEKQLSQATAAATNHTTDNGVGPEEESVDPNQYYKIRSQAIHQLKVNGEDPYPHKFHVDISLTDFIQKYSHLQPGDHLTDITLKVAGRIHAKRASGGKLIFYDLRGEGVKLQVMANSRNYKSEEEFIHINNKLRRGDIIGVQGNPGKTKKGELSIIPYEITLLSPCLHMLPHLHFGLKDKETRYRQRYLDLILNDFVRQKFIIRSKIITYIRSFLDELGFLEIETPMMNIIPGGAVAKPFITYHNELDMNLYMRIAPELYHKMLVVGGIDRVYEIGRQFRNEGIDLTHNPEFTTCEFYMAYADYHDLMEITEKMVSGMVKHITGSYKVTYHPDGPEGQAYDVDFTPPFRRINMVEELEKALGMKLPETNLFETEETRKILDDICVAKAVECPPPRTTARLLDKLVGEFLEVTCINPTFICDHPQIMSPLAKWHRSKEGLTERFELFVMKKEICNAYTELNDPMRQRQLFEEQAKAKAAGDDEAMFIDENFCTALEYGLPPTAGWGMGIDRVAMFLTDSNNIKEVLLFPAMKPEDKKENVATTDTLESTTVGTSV
UniProt P07814: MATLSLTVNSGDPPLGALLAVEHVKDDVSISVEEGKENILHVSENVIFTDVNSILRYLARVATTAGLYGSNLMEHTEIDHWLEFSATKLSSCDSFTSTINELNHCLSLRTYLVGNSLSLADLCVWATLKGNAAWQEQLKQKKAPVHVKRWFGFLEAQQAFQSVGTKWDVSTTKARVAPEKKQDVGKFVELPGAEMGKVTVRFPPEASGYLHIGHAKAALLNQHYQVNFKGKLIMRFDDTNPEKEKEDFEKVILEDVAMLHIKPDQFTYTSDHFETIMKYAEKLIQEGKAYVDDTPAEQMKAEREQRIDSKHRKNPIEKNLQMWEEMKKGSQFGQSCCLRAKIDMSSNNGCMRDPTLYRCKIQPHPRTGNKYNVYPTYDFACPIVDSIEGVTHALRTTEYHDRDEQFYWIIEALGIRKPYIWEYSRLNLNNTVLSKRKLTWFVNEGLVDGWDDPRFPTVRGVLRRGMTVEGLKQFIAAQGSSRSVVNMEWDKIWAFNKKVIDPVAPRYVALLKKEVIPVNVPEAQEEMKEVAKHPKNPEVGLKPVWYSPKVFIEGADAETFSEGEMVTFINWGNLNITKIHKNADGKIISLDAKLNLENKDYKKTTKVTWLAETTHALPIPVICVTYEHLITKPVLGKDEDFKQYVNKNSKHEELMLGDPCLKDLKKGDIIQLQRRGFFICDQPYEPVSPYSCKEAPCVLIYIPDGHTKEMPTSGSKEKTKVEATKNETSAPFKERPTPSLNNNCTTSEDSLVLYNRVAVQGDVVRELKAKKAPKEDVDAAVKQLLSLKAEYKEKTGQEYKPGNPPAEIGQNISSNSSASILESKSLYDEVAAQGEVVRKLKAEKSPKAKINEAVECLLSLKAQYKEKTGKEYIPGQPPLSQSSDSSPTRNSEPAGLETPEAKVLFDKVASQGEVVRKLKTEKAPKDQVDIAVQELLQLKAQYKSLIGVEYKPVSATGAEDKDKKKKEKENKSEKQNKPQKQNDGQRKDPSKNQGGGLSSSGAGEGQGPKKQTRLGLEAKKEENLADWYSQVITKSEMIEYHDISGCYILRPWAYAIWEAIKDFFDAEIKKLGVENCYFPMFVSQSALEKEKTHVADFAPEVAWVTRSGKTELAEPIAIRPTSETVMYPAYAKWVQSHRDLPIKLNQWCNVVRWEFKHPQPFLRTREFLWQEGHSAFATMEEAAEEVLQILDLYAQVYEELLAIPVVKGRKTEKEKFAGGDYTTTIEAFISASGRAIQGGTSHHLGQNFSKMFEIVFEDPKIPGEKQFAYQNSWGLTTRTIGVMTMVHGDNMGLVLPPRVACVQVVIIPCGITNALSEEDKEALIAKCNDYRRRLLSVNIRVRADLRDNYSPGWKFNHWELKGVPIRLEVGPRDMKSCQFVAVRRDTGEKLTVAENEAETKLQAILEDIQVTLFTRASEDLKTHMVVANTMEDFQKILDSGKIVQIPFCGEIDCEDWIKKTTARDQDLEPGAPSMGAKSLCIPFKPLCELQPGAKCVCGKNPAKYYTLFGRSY

Target: lysyl-tRNA synthetase (KARS) tagged with S/FLAG/SBP (UniProt Q15046)
Test: affinity purification with mass spectrometry; S/FLAG/SBP-KARS in lysate (2 mg) of transfected HEK 293T cells held on streptavidin agarose, NETN buffer (20 mM Tris-HCl pH 7.5, 1 mM EDTA, 150 mM NaCl, 0.1% NP-40), 2 h, 4°C, three washes, eluted with 0.82 mM biotin; eluate fractionated by SEC (Superdex 200, PBS) and each fraction read by MRM-MS

Row | Molecule | binding
1 | EPRS (from UniProt P07814 1-1512) (enzyme) | binds
2 | B1 | binds
3 | B2 | binds
